Laboratory results published in patent publication US9683254B2, “Compositions and methods for identifying enzyme and transport protein inhibitors” (San Diego State University (SDSU) Foundation, priority 2010, dated 2017).
At least one structure is not confirmed: it was looked up by name or label, or the drawing left a doubt.

Target: HIV-1 PR (Human immunodeficiency virus type 1 group M subtype B, UniProt P04585)
Assay type: cell-based
Parameters: expressed in transfected cells; host or cells: SupT1 T-cell clone (lentiviral transduction; rtTA/mCherry, 5xUAS-eGFP reporter, inducible PR/Gal4)
Details: SupT1 PR/Gal4 clone, 1 μg/mL Dox, 50 hrs
Protocol: Finally, cells were infected with virus encoding the reporter, rtTA and inducible wild-type PR/Gal4 (pH-TRE-PR/Gal4) to test the ability for this system in T-cells to indicate the levels of PR activity.
To determine the optimal time point for the analysis of eGFP expression in the presence of inhibitor, cells were activated with Dox and analyzed by flow cytometry 4, 8, 12, 16, 20, 25, 50, or 75 hours later. Six-well plates containing 250K cells per well in 3 mL media were treated either with DMSO alone as control, or 1 μg/mL Dox and 10 μM Indinavir.
The range chosen extended from 1 nM to 20 μM.
Flow Cytometry was performed on a BD FACSAria™ with 488 nm and 633 nm lasers. Data was collected on FACSDiva 6.1.1™ software and then exported to FlowJo™. eGFP expression was detected in the FITC channel and mCherry expression was detected on the PE-Texas-Red channel. […]
FIG. 21A (upper left) schematically illustrates exemplary constructs utilized to generate infectious particles for the transduction of SupT1 cells with the various assay elements. […] FIG. 21C (lower left) illustrates images of fluorescence microscopy of SupT1 clones expressing the assay elements. Cells expressing various elements of the assay were treated as indicated with DMSO, DMSO+1 μg/mL Dox, or […] Dox+10 μM Indinavir and analyzed 24 hours later by fluorescence microscopy for mCherry and eGFP expression. […]

## CCC[C@@]1(CCc2ccccc2)CC(O)=C([C@H](CC)c2cccc(NS(=O)(=O)c3ccc(C(F)(F)F)cn3)c2)C(=O)O1 [Tipranavir]
  concentration inducing nearly full activation of reporter: 5 µM
